# Hit rate of the full screen: of about 53,000 sequences, about 3,700 (7%) were called active.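 The calls were made as follows: active = gene knockdowns whose robust z-score for IL-1 alpha signal is at least 2 or at most -2, so actives lie on both sides; inactive = the rest.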 Some of the results follow.
# Experiment: Components of the Cytosolic LPS Sensing Pathway: Gene Identification via Genome-wide siRNA Screen;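 also: robust z of the log signal after scaling to non-targeting control siRNA wells of the plate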
# Settings: RAW264.7 macrophages, IL-1a HTRF, actives lie on both sides, screened at 100 nM (by protocol), cells primed 5 h with Pam3CSK4 first
# How it was run: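 Cells (RAW264.7, 1×10^4 per well) were transfected with siRNA at 100 nM and cultured 48h at 37 degrees C. Pam3CSK4 was added for 5 hours; LipidA transfection followed for 24 hour. IL-1a was then measured by HTRF.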
row,Sequence,z-score
1,GCACUGUUUGUCAAGAAUGTT against Cdc42ep4,inactive: -0.381
2,GGGCCUUCAAAAAACUGCCTT against Eva1b,inactive: 1.75
3,UGAAGCUGUCCCGGACUAATT against Shf,inactive: 0.731
4,GGCCUCUGACUUUAAAGGCTT against Taf1d,inactive: 1.09
5,CCCUAGGUCAUAGCUUGACTT against Crtc1,inactive: 1.58
6,GCACAAGAUGUUCACACUATT against Siva1,inactive: 0.255
7,GGCUCAGGUGUUCAAGAUATT against Cd109,inactive: -1.66
8,GGAGUACUAAGUCCAUUCCTT against Tuba1b,inactive: -0.18
9,GGGCUGUGGUUUCUAUGACTT against Tpra1,inactive: -0.0792
10,GGAUUUUGUUCUUACAGUUTT against Nfia,active: 2.8
11,GCUGCACGAUCGGAAUGGUTT against Ssh1,inactive: -0.678
12,GGAAGAAAUGUACAAACUGTT against Spg21,inactive: 1.63
13,GGUGACUCUGAUCAAUUUCTT against Fkbpl,inactive: -1
14,GGAAUUCUGACGUGAAGAATT against Olfr13,inactive: -0.987
15,CGAGAAACCACAAUUCUCUTT against Arl11,inactive: -0.614
16,CGCUCAGGUCACCAAAAAGTT against Acaca,inactive: -0.48
17,CGACAAUGAAUUCAAUGGGTT against Slc48a1,inactive: -0.342
18,GCCAGUGUUCGGAGAAGAUTT against Pitx1,inactive: 0.759
19,GGCCUAGUGCCUUUAUUUGTT against Ptgfr,inactive: 1.01
20,GGGCAGAAAACAACUGGAATT against Pappa,inactive: -1.1
21,GGCCAACUUGAGAUUGUCUTT against Dcaf7,inactive: 0.766
22,GGUAGUGAUCCUCAAAAAATT against Myc,inactive: 1.84
23,GGCCUAUCAAAAUUCAGUUTT against Rbm7,inactive: 1.17

row,Sequence,z-score
1,GGCACCUGGAGUUUUAGAGTT against Ltb4r1,inactive: 0.385
2,GGGUUUCCUGGAUUCUCAUTT against Arap3,inactive: -1.73
3,GGCUGAUCCUGUAUUCUUATT against Sertad3,inactive: 0.757
4,CGAUAUGAUGUAUUCCAUCTT against Fktn,inactive: 0.206
5,GGAGAGUGCUGUGAAGCCATT against Vegfb,inactive: -0.943
6,GGAGCUGAACAAGAAAUUGTT against Polr3h,inactive: 0.33
7,GCACUUUUGUUCACUUAAATT against Fmo1,inactive: -0.269
8,GGAUUCUGAGAAAUCAAGATT against Serpinb12,inactive: -0.376
9,GGAGAAGAAAAACCACUACTT against Cacng8,inactive: -1.92
10,CGCACAAGUGCUUGAGUUATT against Ccdc151,inactive: 1.03
11,GCUGGUGUCUCAGAUCUCATT against Hbq1b,inactive: -0.566
12,GCAUACAACUGUUCAUAGATT against Nsrp1,inactive: -0.476
13,CCCAUCCCUGUAAAAAUUCTT against Limd2,inactive: -1.19
14,GGAGGUGGUUCACUAAAAATT against Ube2dnl1,inactive: 0.272
15,GGUACCUUCAUCUUGGUGGTT against Olfr699,inactive: -0.017
16,GGUGGAAUCACAAAAACGCTT against Psmg2,inactive: -1.07
17,GGACAUGCAAGACAUGGAUTT against Anapc15,inactive: 1.46
18,GGAAGUAUGUGUUUCUCAGTT against Prr9,active: -2.41
19,GUCUUUCUGUUACCUUGGCTT against Adam20,inactive: -1.09
20,CCUAUUGAAAAGCCAAACUTT against Lypd11,inactive: -0.651
21,GUAACUCAGCAUUUGAUACTT against Krtap19-3,inactive: -0.475
22,GGGAUAAUAAAGAAGAAGUTT against Dach2,inactive: -0.251
23,GGACUCAAGAUUUCAGAAUTT against Btbd7,inactive: 0.219

row,Sequence,z-score
1,CCCUCUUUAUCAAAGCCAATT against 2310067E19Rik,inactive: -0.277
2,GGACUUACAAAAAUUCCAGTT against Fcer2a,inactive: 0.576
3,GGUGGAAGCAAGCUGUUCUTT against Trim39,inactive: 1.14
4,CCUAGGACAUUUAUUAACATT against Casc3,inactive: -0.275
5,GCACACUUACGUUCACAUATT against Timm8a2,inactive: 0.723
6,GGUAAUUGAGCUGAGUUCUTT against Rad54l2,inactive: 0.479
7,CGGGAAGCAUCACUAUUUCTT against Nabp1,inactive: -0.822
8,GGAACCACUACAAAAGUUGTT against Pmel,inactive: 0.166
9,CCAAGUGGGAUUUGCCAACTT against Ifi47,inactive: -1.68
10,GGAUUGUUUCAGAGAUGGATT against Stx6,inactive: 0.126
11,GGAGAGCAGUGAUAACCAGTT against Cracd,active: 2.06
12,CCAAAGAUUGCUUUCACAATT against Ube2d1,inactive: -0.532
13,CCAACAUGAAGCUUGUCCATT against Zpr1,inactive: -1.51
14,CCUUUAAUAAAGGUCUAGGTT against Desi1,inactive: 0.354
15,GGGCUGUUCCAAAACACAGTT against Flad1,inactive: 1.1
16,GGAGUCUCAGAACAGCACATT against Spg11,inactive: 0.0597
17,GGACUUAAAAGUCACAUCATT against Tcf4,inactive: 0.387
18,GGAACAUCAUCCACUGGAATT against Crhr1,active: 6
19,GGAAGAUUCAUGUUCCUAUTT against Mug1,inactive: 0.423
20,GCUUGAAUGUUAAAGCCAATT against Fbxo34,inactive: 0.0889
21,GGUGGAGAUUAUUCAUGUUTT against Dpp8,active: 2.31
22,CGAUGAUAACGAAAUGAACTT against Scn3a,inactive: -0.027
23,GGCCUUUAACAAGUUUCUATT against Csn1s1,inactive: 0.283

# Single entries from the list:
# Value for GGAACAUCAUCCACUGGAATT against Crhr1 under z-score: active: 6
# Value for CGAUGAUAACGAAAUGAACTT against Scn3a under z-score: inactive: -0.027
# Value for GGACUUAAAAGUCACAUCATT against Tcf4 under z-score: inactive: 0.387
# Value for CCUAGGACAUUUAUUAACATT against Casc3 under z-score: inactive: -0.275
# Value for GGUGGAAGCAAGCUGUUCUTT against Trim39 under z-score: inactive: 1.14
# Value for GGUAAUUGAGCUGAGUUCUTT against Rad54l2 under z-score: inactive: 0.479

# — PubChem BioAssay AID1508600 (Functional Genomics Laboratory (NCATS/FGL), 2020)
